Like-named read-outs stand apart in the source and are kept apart here.
Experiments:
LNCaP spheroids = settings: SAHA alone
[1] = test system: prostate tumor xenografts; settings: nude mice (Butler et al. 2000); cited from earlier work

O=C(CCCCCCC(=O)Nc1ccccc1)NO [SAHA, Suberoylanilide hydroxamic acid]
Ki67 staining (proliferation) (LNCaP spheroids; at the end of the 96 h incubation with SAHA (5 μM)): virtually all cells making up the spheroids have stopped cycling
Ki67 staining (proliferation) (LNCaP spheroids; within 6 to 24 hours after the end of 96 h SAHA incubation): faint positive Ki67 staining
inhibition of tumor xenografts [1]: inhibition of prostate tumor xenografts

— patent US20090054720A1, “Use of histone deacetylase inhibitors in combination with radiation for the treatment of cancer” (priority 2002, published 2009)
